Reference: patent publication US5616684A (priority 1991, dated 1997)

Experiment: general procedure: solution-phase peptide synthesis; DCC/HONB (ONB active esters)
Details: for cyclisation yield: cyclisation step

| Substance | step yield (coupling step) | further results |
| --- | --- | --- |
| Boc-Asn(CH2 CH2 Ph)-Asp(OBzl)-D-Leu-Leu-OPac | 88.7% |  |
| Boc-Asn(CH2 Ph)-Asp(OBzl)-D-Leu-Leu-OPac | 86.7% |  |
| Boc-Asn(NHCH2 CH2 Ind)-AsP(OBzl)-D-Thg(2)-Leu-OPac | 96.7% |  |
| Boc-D-Asp(OBzl)-Asn(CH2 CH2 Ph)-Asp(OBzl)-D-Leu-Leu-OPac | 93.5% |  |
| Boc-D-Asp(OBzl)-Asn(NHCH2 CH2 Ind)-Asp(OBzl)-D-Thg(2)-Leu-OPac | 85.9% |  |
| Boc-D-Thg(2)-Leu-D-Trp-D-Asp(OBzl)-Asn(CH2 CH2 -Ind)-Asp(OBzl)-OH |  | step yield (late stage modification step): 98.0% |
| Boc-D-Thg(2)-Leu-D-Trp-D-Asp(OBzl)-Asn(CH2 CH2 -Ind)-Asp(OBzl)-OPac | 98.7% |  |
| Boc-D-Trp-D-Asp(OBzl)-Ala-D-Asp(BOzl)-D-Leu-Leu-OH |  | step yield (late stage modification step): 93.5% |
| Boc-D-Trp-D-Asp(OBzl)-Asn(CH2 CH2 -Ind)-Asp(OBzl)-OPac | 56.9% |  |
| Boc-D-Trp-D-Asp(OBzl)-Asn(CH2 CH2 Ph)-Asp(OBzl)-D-Leu-Leu-OH |  | step yield (late stage modification step): 97.3% |
| Boc-D-Trp-D-Asp(OBzl)-Asn(CH2 CH2 Ph)-Asp(OBzl)-D-Leu-Leu-OPac | 90.5% |  |
| Boc-D-Trp-D-Asp(OBzl)-Asn(CH2 Ph)-Asp(OBzl)-D-Leu-Leu-OH |  | step yield (late stage modification step): 96.1% |
| Boc-D-Trp-D-Asp(OBzl)-Asn(CH2 Ph)-Asp(OBzl)-D-Leu-Leu-OPac | 81.6% |  |
| Boc-D-Trp-D-Asp(OBzl)-Asn(NHCH2 CH2 Ind)-Asp(OBzl)-D-Thg(2)-Leu-OH |  | step yield (late stage modification step): 98.0% |
| Boc-D-Trp-D-Asp(OBzl)-Asn(NHCH2 CH2 Ind)-Asp(OBzl)-D-Thg(2)-Leu-OPac | 68.0% |  |
| Boc-Leu-D-Trp-D-Asp(OBzl)-Asn(CH2 CH2 -Ind)-Asp(OBzl)-OPac | 91.4% |  |
| Boc-Orn(COCH2 -Ind)-Asp(OBzl)-D-Leu-Leu-D-Trp-D-Asp(OBzl)-OH |  | step yield (late stage modification step): 97.6% |
| Boc-Orn(COCH2 -Ind)-Asp(OBzl)-D-Leu-Leu-D-Trp-D-Asp(OBzl)-OPac | 87.4% |  |
| Boc-Orn(COCH2 CH2 Ph)-Asp(OBzl)-D-Leu-Leu-D-Trp-D-Asp(OBzl)-OH |  | step yield (late stage modification step): 98.3% |
| Boc-Orn(COCH2 CH2 Ph)-Asp(OBzl)-D-Leu-Leu-D-Trp-D-Asp(OBzl)-OPac | 91.0% |  |
| Boc-Orn(COCH2 Ph)-Asp(OBzl)-D-Leu-Leu-D-Trp-D-Asp(OBzl)-OH |  | step yield (late stage modification step): 97.2% |
| Boc-Orn(COCH2 Ph)-Asp(OBzl)-D-Leu-Leu-D-Trp-D-Asp(OBzl)-OPac | 78.4% |  |
| Boc-[dW][dD](OBn)WD(OBn)-OPac | 80.3% |  |
| Cyclo[--D--Asp--Asn(CH2 CH2 --Ind)--Asp--D--Val--Leu--D--Trp--] |  | cyclisation yield: 82.6% |
| Cyclo[--D--Asp--Gln(CH2 CH2 Ph)--Asp--D--Thg(2)--Leu--D--Trp--] |  | step yield (late stage modification step): 92.5% |

| Substance | step yield (coupling step) | further results |
| --- | --- | --- |
| Cyclo[--D--Asp--Gln(CH2 Ph)--Asp--D--Thg(2)--Leu--D--Trp(For)--] | 85.4% |  |
| Cyclo[--D--Asp--Gln(CH2 Ph)--Asp--D--Thg(3)--Leu--D--Trp(For)--] | 89.5% |  |
| Cyclo[--D--Asp--Gln(CH2 Ph)--Asp--D--Thg(3)--Leu--D--Trp(Me)--] | 78.1% |  |
| Cyclo[--D--Cta--Gln(CH2 CH2 --Ind)--Asp--D--Thg(2)--Leu--D--Trp--] | 91.4% |  |
| Cyclo[--D--Cta--Gln(CH2 CH2 Ph)--Asp--D--Thg(2)--Leu--D--Trp--] | 92.0% |  |
| Cyclo[--D--Cta--Gln(CH2 CH2 Ph)--Asp--D--Thg(3)--Leu--D--Trp--] | 84.3% |  |
| Cyclo[--D--Cta--Trp--Asp--D--Leu--Leu--D--Trp--] |  | cyclisation yield: 23.8% |
| PEPTIDE1{[dD].A.[dE].[dL].L.[dW]}$PEPTIDE1,PEPTIDE1,1:R1-6:R2$$$V2.0 |  | cyclisation yield: 10.8% |
| PEPTIDE1{[dD].D.D.[dL].L.[dW]}$PEPTIDE1,PEPTIDE1,6:R2-1:R1$$$V2.0 | 83.8% |  |
| PEPTIDE1{[dD].D.W.[dL].L.[dW]}$PEPTIDE1,PEPTIDE1,6:R2-1:R1$$$V2.0 | 90 0% |  |
| PEPTIDE1{[dD].H.D.[dL].L.[dW]}$PEPTIDE1,PEPTIDE1,6:R2-1:R1$$$V2.0 | 93.1% |  |
| PEPTIDE1{[dD].W.D.[Acbu].L.[dW]}$PEPTIDE1,PEPTIDE1,1:R1-6:R2$$$V2.0 |  | cyclisation yield (run 1): 19.2%; cyclisation yield (run 2): 10.4% |
| PEPTIDE1{[dD].W.D.[Achx].L.[dW]}$PEPTIDE1,PEPTIDE1,1:R1-6:R2$$$V2.0 | 94.2% |  |
| PEPTIDE1{[dD].W.D.[D-Thg(2)].L.[dW]}$PEPTIDE1,PEPTIDE1,1:R1-6:R2$$$V2.0 |  | cyclisation yield: 4.6% |
| PEPTIDE1{[dD].W.D.[D-gMeLeu].L.[dW]}$PEPTIDE1,PEPTIDE1,1:R1-6:R2$$$V2.0 | 49.1% | cyclisation yield: 51.5% |
| PEPTIDE1{[dD].W.D.[dL].L.[D-Trp(For)]}$PEPTIDE1,PEPTIDE1,1:R1-6:R2$$$V2.0 | 91.1% |  |
| PEPTIDE1{[dD].W.D.[dL].L.[dTrp(Me)]}$PEPTIDE1,PEPTIDE1,6:R2-1:R1$$$V2.0 |  | cyclisation yield: 47.4% |
| PEPTIDE1{[dD].W.D.[dPhg].L.[dW]}$PEPTIDE1,PEPTIDE1,6:R2-1:R1$$$V2.0 |  | step yield (late stage modification step): 93.0% |
| PEPTIDE1{[dD].W.D.[dTle].L.[dW]}$PEPTIDE1,PEPTIDE1,6:R2-1:R1$$$V2.0 | 87.3% | cyclisation yield: 42.8% |
| PEPTIDE1{[dD].W.D.[dV].L.[dW]}$PEPTIDE1,PEPTIDE1,6:R2-1:R1$$$V2.0 | 93 2% |  |
| PEPTIDE1{[dD].W.E.[dL].L.[dW]}$PEPTIDE1,PEPTIDE1,6:R2-1:R1$$$V2.0 | 98 2% |  |
| PEPTIDE1{[dD].[1Nal].D.[dL].L.[dW]}$PEPTIDE1,PEPTIDE1,6:R2-1:R1$$$V2.0 | 79 0% |  |
| PEPTIDE1{[dD].[Arg(Tos)].D.[dL].L.[dW]}$PEPTIDE1,PEPTIDE1,1:R1-6:R2$$$V2.0 |  | cyclisation yield: 17.8% |
| PEPTIDE1{[dD].[Asn(CH2CH2-Ind)].D.[dL].L.[dW]}$PEPTIDE1,PEPTIDE1,1:R1-6:R2$$$V2.0 |  | cyclisation yield: 19.4% |
| PEPTIDE1{[dD].[Asp(R2)].D.[dL].L.[dW]}$PEPTIDE1,PEPTIDE1,1:R1-6:R2$$$V2.0 | 92.4% |  |

| Substance | step yield (coupling step) | further results |
| --- | --- | --- |
| PEPTIDE1{[dD].[Asp(R3)].D.[dL].L.[dW]}$PEPTIDE1,PEPTIDE1,1:R1-6:R2$$$V2.0 | 87.6% |  |
| PEPTIDE1{[dD].[Asp(R4)].D.[dL].L.[dW]}$PEPTIDE1,PEPTIDE1,1:R1-6:R2$$$V2.0 | 75.4% |  |
| PEPTIDE1{[dD].[Asp(R5)].D.[dL].L.[dW]}$PEPTIDE1,PEPTIDE1,1:R1-6:R2$$$V2.0 |  | step yield (late stage modification step): 91.4% |
| PEPTIDE1{[dD].[Asp(R6)].D.[dL].L.[dW]}$PEPTIDE1,PEPTIDE1,1:R1-6:R2$$$V2.0 |  | cyclisation yield: 20.6% |
| PEPTIDE1{[dD].[Gln(CH2CH2-Ind)].D.[dL].L.[dW]}$PEPTIDE1,PEPTIDE1,1:R1-6:R2$$$V2.0 |  | step yield (late stage modification step): 81.0% |
| PEPTIDE1{[dD].[Gln(CH2CH2Ph)].D.[dL].L.[dW]}$PEPTIDE1,PEPTIDE1,1:R1-6:R2$$$V2.0 | 77.0% |  |
| PEPTIDE1{[dD].[Gln(CH2Ph)].D.[dL].L.[dW]}$PEPTIDE1,PEPTIDE1,1:R1-6:R2$$$V2.0 | 87.0% |  |
| PEPTIDE1{[dD].[His(Bom)].D.[dL].L.[dW]}$PEPTIDE1,PEPTIDE1,1:R1-6:R2$$$V2.0 |  | step yield (late stage modification step): 96.1% |
| PEPTIDE1{[dD].[His(Bzl)].D.[dL].L.[dW]}$PEPTIDE1,PEPTIDE1,1:R1-6:R2$$$V2.0 |  | cyclisation yield: 52.9% |
| PEPTIDE1{[dD].[Hyp(Bzl)].D.[dL].L.[dW]}$PEPTIDE1,PEPTIDE1,1:R1-6:R2$$$V2.0 |  | step yield (late stage modification step): 82.6%; step yield (purification step): 79.0% |
| PEPTIDE1{[dD].[Hyp].D.[dL].L.[dW]}$PEPTIDE1,PEPTIDE1,6:R2-1:R1$$$V2.0 | 96 4% | step yield (late stage modification step): 85.7%; step yield (purification step): 78.8% |
| PEPTIDE1{[dD].[Orn(COCH2-Ind)].D.[dL].L.[dW]}$PEPTIDE1,PEPTIDE1,1:R1-6:R2$$$V2.0 | 86.7% | cyclisation yield: 12.5% |
| PEPTIDE1{[dD].[Orn(COCH2CH2Ph)].D.[dL].L.[dW]}$PEPTIDE1,PEPTIDE1,1:R1-6:R2$$$V2.0 | 90.7% | cyclisation yield: 40.9% |
| PEPTIDE1{[dD].[Orn(COCH2Ph)].D.[dL].L.[dW]}$PEPTIDE1,PEPTIDE1,1:R1-6:R2$$$V2.0 |  | cyclisation yield: 2.9% |
| PEPTIDE1{[dD].[Orn(COPh)].D.[dL].L.[dW]}$PEPTIDE1,PEPTIDE1,1:R1-6:R2$$$V2.0 |  | cyclisation yield: 48.1% |
| PEPTIDE1{[dD].[Trp(For)].D.[dL].L.[dW]}$PEPTIDE1,PEPTIDE1,1:R1-6:R2$$$V2.0 | 88.0% |  |
| PEPTIDE1{[dD].[dA].D.[dL].L.[dW]}$PEPTIDE1,PEPTIDE1,1:R1-6:R2$$$V2.0 | 91.8% |  |
| PEPTIDE1{[dD].[dP].D.[dL].L.[dW]}$PEPTIDE1,PEPTIDE1,6:R2-1:R1$$$V2.0 | 84 3% |  |
| cyclo([dD]AD[dL]L[dW]) |  | cyclisation yield: 18.2% |
| cyclo([dD]AE[dL]L[dW]) |  | cyclisation yield: 24.1% |
| cyclo([dD]A[dD][dL]L[dW]) |  | cyclisation yield: 15.3% |
| cyclo[-D-Asp(OBzl)-Asn(NHCH2 CH2 Ind)-Asp(OBzl)-D-Thg(2)-Leu-D-Trp-] |  | cyclisation yield: 90.4% |
| cyclo[-D-Asp-Asn(CH2 CH2 -Ind)-Asp-DThg-(2)-Leu-D-Trp-] |  | cyclisation yield: 9.5% |
| cyclo[-D-Asp-Asn(CH2 CH2 Ph)-Asp-D-Leu-Leu-D-Trp-] |  | cyclisation yield: 24.1% |

Strings that start with PEPTIDE1 are HELM notation: dots part the residues, brackets hold end groups and non-standard residues. Non-standard residues stand in square brackets, D forms with d. *: point of attachment. OPac = O=C(CO*)c1ccccc1; Boc = CC(C)(C)OC(=O)*; OBn = c1ccc(CO*)cc1
